From PubChem BioAssay AID292 (DTP/NCI, 2004)
The list shows only some results of the screen, not a fair sample: it is rich in T/C values a quarter to a half above the control, in often repeated tests (any T/C) and in doses without a T/C. Further doses and runs are listed elsewhere. T/C is the treated group as % of the vehicle group. Some doses have a count of surviving animals in place of a T/C: the source files T/C as zero there, which appears to mark a toxic dose or a test without result, not a measured value. Some survivor counts are full or nearly so, which does not show that the dose was tolerated: survival well below the control is almost never listed, so the zero probably covers shortened survival too. Survivors were counted at the toxicity check, usually on the fifth day, unless a day is given; later deaths do not show. Schedules are NCI's codes, taken here to give the interval after Q, in days (D) or hours (H), and the number of doses after X. Some entries were tested several times; the results are listed from low to high. Marks such as (2×) stand for listed records that agree. For survival time, the PubChem record calls one and a half times the control and up active, and a quarter to a half above the control has no call in these data; cut-offs in other NCI protocols can differ. Some T/C values are followed by the survivors on the day toxicity was checked, most often the fifth; without a count, all were alive then.

System: B6C3F1 mice, ip Sarcoma M5076, median survival T/C
Assay: NCI In Vivo Anticancer Drug Screen. Data for tumor model Sarcoma M5076 (intraperitoneal) in B6C3F1 mice
Settings: T/C endpoint: median survival time, higher T/C = longer survival
Summary of the method: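 Antitumour effect is judged in tumour-bearing mice by comparing survival after compound dosing against vehicle-only animals, reported as T/C.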

[1] = dose: 800.0 mg/kg/injection, schedule: Q04DX005 (ip), vehicle: saline
[2] = dose: 800.0 mg/kg/injection, schedule: Q04DX004 (ip), vehicle: suspension in saline

In the case of `c1cc2n(n1)CCN2`, the T/C (dose: 100.0 mg/kg/injection, schedule: Q04DX004 (ip), vehicle: saline, evaluated on day 60) is reported as 103 and 111 % of control [8 of 10 alive on day 14], the T/C (dose: 100.0 mg/kg/injection, schedule: Q04DX004 (ip), vehicle: saline, evaluated on day 75) is reported as 101 (2×), 104 [9 of 10 alive on day 14], 105 (2×), 109, 110, 111 % of control and the T/C (dose: 100.0 mg/kg/injection, schedule: Q04DX005 (ip), vehicle: saline, evaluated on day 75) is reported as 87, 89 [8 of 10 alive], 107, 108, 114 % of control. For the same compound, the T/C (dose: 100.0 mg/kg/injection, schedule: Q04DX005 (ip), vehicle: saline, evaluated on day 100) was 95 % of control, the T/C (dose: 200.0 mg/kg/injection, schedule: Q04DX004 (ip), vehicle: saline, evaluated on day 60) was 115 and 128 % of control and the T/C (dose: 200.0 mg/kg/injection, schedule: Q04DX004 (ip), vehicle: saline, evaluated on day 75) was 87, 93 [7 of 10 alive on day 14], 95 [9 of 10 alive on day 14], 97, 106, 107 [9 of 10 alive on day 9], 110, 115 % of control. The T/C (dose: 200.0 mg/kg/injection, schedule: Q04DX005 (ip), vehicle: saline, evaluated on day 75) was 94, 106, 113 % of control (3×), the T/C (dose: 200.0 mg/kg/injection, schedule: Q04DX005 (ip), vehicle: saline, evaluated on day 100) was 95 % of control and the T/C (dose: 400.0 mg/kg/injection, schedule: Q04DX004 (ip), vehicle: saline, evaluated on day 60) was 123 and 141 % of control. For the same compound, the T/C (dose: 400.0 mg/kg/injection, schedule: Q04DX004 (ip), vehicle: saline, evaluated on day 75) was 91, 95, 103, 114 (2×), 114 [7 of 10 alive on day 14], 118, 120 % of control [9 of 10 alive on day 9], the T/C (dose: 400.0 mg/kg/injection, schedule: Q04DX005 (ip), vehicle: saline, evaluated on day 75) was 100, 101, 119, 126, 131 % of control and the T/C (dose: 400.0 mg/kg/injection, schedule: Q04DX005 (ip), vehicle: saline, evaluated on day 100) was 102 % of control. The T/C (dose: 800.0 mg/kg/injection, schedule: Q04DX004 (ip), vehicle: saline, evaluated on day 60) was 137 % of control [8 of 10 alive on day 14], the T/C (dose: 800.0 mg/kg/injection, schedule: Q04DX004 (ip), vehicle: saline, evaluated on day 75) was 97 [9 of 10 alive on day 9], 107 [9 of 10 alive on day 9], 126, 144 % of control [9 of 10 alive on day 14] and the survivor count (dose: 800.0 mg/kg/injection, schedule: Q04DX004 (ip), vehicle: saline) was 1 of 10 on day 9, 2 of 10, 3 of 10 on day 14 (2×), 4 of 10 on day 9. For the same compound, the T/C [1] was 112 and 114 % of control [9 of 10 alive on day 9] and the survivor count [1] was 1 of 10 on day 9, 2 of 10 on day 9, 3 of 10, 5 of 8 on day 17.
With `Nc1nc2n[nH]nc2c(=O)[nH]1` the T/C (dose: 100.0 mg/kg/injection, schedule: Q04DX004 (ip), vehicle: suspension in saline) was 125 % of control, the survivor count (dose: 400.0 mg/kg/injection, schedule: Q04DX004 (ip), vehicle: suspension in saline) was 7 of 10 on day 9 and the survivor count [2] was 7 of 10 on day 9.
For `COc1ccc(-n2[nH]c3c(cnc4ccccc43)c2=O)cc1`, the survivor count (dose: 37.5 mg/kg/injection, schedule: Q04DX004 (ip), vehicle: saline with Tween-80) was 10 of 10 on day 14, the survivor count (dose: 75.0 mg/kg/injection, schedule: Q04DX004 (ip), vehicle: saline with Tween-80) was 9 of 10 on day 14 and the survivor count (dose: 150.0 mg/kg/injection, schedule: Q04DX004 (ip), vehicle: saline with Tween-80) was 7 of 10 on day 14. The survivor count (dose: 300.0 mg/kg/injection, schedule: Q04DX004 (ip), vehicle: saline with Tween-80) was 9 of 10 on day 14 and the survivor count (dose: 600.0 mg/kg/injection, schedule: Q04DX004 (ip), vehicle: saline with Tween-80) was 10 of 10 on day 14.
For `CO[C@@]12[C@H](COC(N)=O)C3=C(C(=O)C(C)=C(N)C3=O)N1C[C@@H]1N[C@@H]12`, the T/C (dose: 1.0 mg/kg/injection, schedule: Q04DX004 (ip), vehicle: saline, evaluated on day 60) was 132 % of control, the T/C (dose: 1.0 mg/kg/injection, schedule: Q04DX004 (ip), vehicle: saline, evaluated on day 75) was 133 % of control and the survivor count (dose: 8.0 mg/kg/injection, schedule: Q04DX004 (ip), vehicle: saline) was 0 of 10 on day 14 and 2 of 10 on day 14.
For `N[C@@H](Cc1c[nH]c2ccccc12)C(=O)Nc1nncs1`, the survivor count (dose: 1600.0 mg/kg/injection, schedule: Q04DX004 (ip), vehicle: suspension in saline) was 0 of 10 on day 14.
For `O=c1[nH]c(=O)n(C2CC(O)C(CO)O2)cc1I` (stereo not given), the T/C (dose: 400.0 mg/kg/injection, schedule: Q04DX004 (ip), vehicle: saline with Tween-80) was 146 % of control, the T/C (dose: 800.0 mg/kg/injection, schedule: Q04DX004 (ip), vehicle: saline with Tween-80) was 137 % of control and the T/C (dose: 1600.0 mg/kg/injection, schedule: Q04DX004 (ip), vehicle: saline with Tween-80) was 137 % of control.
For `O=NNc1ccc2cccnc2n1`, the T/C (dose: 25.0 mg/kg/injection, schedule: Q04DX004 (ip), vehicle: water) was 135 % of control, the T/C (dose: 50.0 mg/kg/injection, schedule: Q04DX004 (ip), vehicle: water) was 132 % of control and the survivor count (dose: 200.0 mg/kg/injection, schedule: Q04DX004 (ip), vehicle: water) was 3 of 10 on day 14. For the same compound, the survivor count (dose: 400.0 mg/kg/injection, schedule: Q04DX004 (ip), vehicle: water) was 0 of 10 on day 14.
For `N=C(N)Sc1cc(O)ccc1O`, the survivor count (dose: 700.0 mg/kg/injection, schedule: Q04DX004 (ip), vehicle: saline with Tween-80) was 0 of 10 on day 14.
In the case of `COc1cc(C2c3cc4c(cc3[C@@H](OC3OC5CO[C@@H](C)OC5C(O)C3O)[C@H]3COC(=O)C23)OCO4)cc(OC)c1OC` (stereo not given in full), the T/C (dose: 100.0 mg/kg/injection, schedule: Q04DX004 (ip), vehicle: Klucel (hydroxypropylcellulose) (HPC)) is reported as 133 % of control, the T/C (dose: 150.0 mg/kg/injection, schedule: Q04DX004 (ip), vehicle: suspension in saline) is reported as 134 % of control and the T/C (dose: 200.0 mg/kg/injection, schedule: Q04DX004 (ip), vehicle: saline) is reported as 129 % of control [9 of 10 alive on day 14]. For the same compound, the T/C (dose: 400.0 mg/kg/injection, schedule: Q04DX004 (ip), vehicle: saline) was 133 % of control [9 of 10 alive on day 14], the survivor count (dose: 800.0 mg/kg/injection, schedule: Q04DX004 (ip), vehicle: Klucel (hydroxypropylcellulose) (HPC)) was 0 of 10 on day 14 and the survivor count [2] was 8 of 10 on day 4.
With `CCCCCCCCCCCCN1C(C)=CS/C1=C\C=C\c1scc(C)[n+]1CCCCCCCCCCCC` the T/C (dose: 3.0 mg/kg/injection, schedule: Q04DX004 (ip), vehicle: saline with Tween-80) was 133 % of control, the survivor count (dose: 6.0 mg/kg/injection, schedule: Q04DX004 (ip), vehicle: saline with Tween-80) was 3 of 10 on day 14 and the survivor count (dose: 12.0 mg/kg/injection, schedule: Q04DX004 (ip), vehicle: saline with Tween-80) was 0 of 10 on day 14.
With `COc1cccc(-n2cc[n+](C)c2/C=N/O)c1` the survivor count (dose: 200.0 mg/kg/injection, schedule: Q04DX004 (ip), vehicle: saline with Tween-80) was 0 of 10 on day 14.
`CS(=O)(=O)OCCCNCCCOS(C)(=O)=O` was tested, and the survivor count (dose: 160.0 mg/kg/injection, schedule: Q04DX005 (ip), vehicle: saline) was 4 of 8 on day 17.
`Nc1ccn([C@@H]2C=C(CO)[C@@H](O)[C@H]2O)c(=O)n1` was tested, and the survivor count (dose: 1.0 mg/kg/injection, schedule: Q01DX013 (ip), vehicle: saline) was 9 of 10 on day 14 and the survivor count (dose: 2.0 mg/kg/injection, schedule: Q01DX013 (ip), vehicle: saline) was 0 of 10 on day 14.
